The other results are listed elsewhere or left out.
B1: il2ra_site2_2erj_normal_mot_HHH_b1_02757_000000121_0001_41_57_H_._HHH_b2_06774_0001_0000100003_0000001_0_af2pred_0001_1_af2pred_swapped (protein)
chain: SSSSSDEEEVRERVEELLEEAKKIPDPREALKVLQEASELASEANDEELLELIRKVLRESSSSSS
B2: il2ra_site2_3nfp_normal_mot_HHH_b1_05547_af2_000000149_0001_21_38_H_._HHH_b1_04376_0001_0000200015_0000001_0 (protein)
chain: SSSSSDEEELERRIELLEQAAEARGDPEVLRKIEELLEEFRKEGDPRYTLKAYELLRRAYSSSSS
B3: il2ra_site1_1z92_normal_mot_HHH_b1_05973_af2_000000047_0001_39_50_H_._ems_3hM_2546_0001_0000100002_0000001_0_af2pred_0001_af2pred (protein)
chain: SSPEEARKLIEIIKKIAEERNSKSAKRFVEVAEEELKLAEEENDEEAIKLIAELLEQFLKFLNRS
B4: il2ra_site2_2erj_sap_14_mot_HHH_b2_05233_af2_000000237_0001_1_18_H_._04c2be03c051e241883c256f53f321d2_0001_0001_0000600029_0000001_0_0001 (protein)
chain: SSSSWQELYELARRIDRLLAEGDLEEAEKLIEELKELAEELNSETAKSAVKILEQSLRLERSSSS
B5: il2ra_site2_3nfp_sap_11_mot_HHH_b1_00660_af2_000000090_0001_40_57_H_._HHH_b2_05351_0001_0000600029_0000001_0_0001 (protein)
chain: SSSSSRSEEYLKAALELLELAVEEGDEEAVEKHTELVRLAAEDAGNPEVEERAEELKRELSSSSS
B6: il2ra_site2_2erj_normal_mot_8a316d4779eb53efc793250774d75e68_0001_af2_000000043_0001_18_32_H_._HHH_b1_06960_af2_0001_0000800004_0000001_0 (protein)
chain: SSSSSDVEEELKELIEEAEELKKENPEEAISVLIEAAELALQNNDEEIFKRVSELFEELFSSSSS
B7: il2ra_site2_2erj_sap_23_mot_HHH_b1_01555_af2_000000123_0001_22_39_H_._HHH_b2_01800_0001_0000100003_0000001_0_0001 (protein)
chain: SSSSSSQQEAWEEVAELLARAAHIPDPEEVEELLEEAKRLAEEANNEFLKKYIEFARRSHSSSSS
B8: il2ra_site1_2b5i_normal_mot_HHH_b1_08426_af2_000000046_0001_39_52_H_._HHH_b2_01859_af2_0001_0000200020_0000001_0_af2pred_0001_af2pred (protein)
chain: SSSSDDEEEEHVFKAFREASRLALRGNPEEAREVLEEALRLAEENNDERIVKDLEEFLKRLSSSS
B9: il2ra_site2_3nfp_normal_mot_HHH_b1_00660_af2_000000090_0001_40_57_H_._HHH_b2_00996_0001_0000300009_0000001_1_af2pred_0001_af2pred_swapped (protein)
chain: SSSSSEQEEAERLVEEVEELLKEGDPERAERLLKEASLVVAELGDEELFIALLQLRELLESSSSS
B10: il2ra_site2_2erj_normal_mot_HHH_b1_04373_af2_000000118_0001_18_33_H_._HHH_b1_00954_af2_0001_0000100003_0000001_0 (protein)
chain: SSSSDELEELYKLAVELLHLVYRGDEEEFEEVAKRVRELVEELQSESAREILEFLEEEIKSSSSS
B11: il2ra_site2_3nfp_normal_mot_HHH_b1_00660_af2_000000199_0001_40_57_H_._HHH_b1_04548_af2_0001_0000200005_0000001_0 (protein)
chain: SSSSDEEVEELLEEAKKLLEEGNPEEARKLIARAAAIAYELNDHELFAAVQELLEEIVRRSSSSS
B12: il2ra_site1_2b5i_normal_mot_HHH_b1_06258_af2_000000112_0001_42_56_H_._HHH_b1_00260_0001_0000100006_0000001_0 (protein)
chain: SSSSDEEEHEVTRLFSEASRAWKEGNPEEAQRLLEEALELAREIGDPRAEEQIRFMLERLRSSSS
B13: il2ra_site1_2b5i_normal_mot_HHH_b1_06844_000000212_0001_1_18_H_._HHH_b2_05789_0001_0000100007_0000001_0_af2pred_dldesign_0_af2pred (protein)
chain: SSSSSSSVEKAEEARRLFLEANTLEDEEERKKLLEEALKLAEEGKCSSLVKLLKLALELVSSSSS
B14: il2ra_site2_2erj_normal_mot_HHH_b2_06512_000000233_0001_19_37_H_._HEEHE_0423_0001_0000200005_0000001_1_af2pred_0001_1_af2pred_swapped (protein)
chain: SDEALAAIMIEAAAERAGVPSVSVEVSNGTIEVTVEGNDEAVEFLREIAENAAKLLGLEVHVETE
B15: il2ra_site1_2b5i_normal_mot_HHH_b2_04910_000000118_0001_1_19_H_._HHH_b2_03705_af2_0001_0000100001_0000001_0_af2pred_dldesign_0_af2pred (protein)
chain: SSSSSPLAREAYELFLKANELYQAGKEEEAKKVLEKAAEVAKAGGATSLLKLIESALKEFSSSSS
B16: il2ra_site1_3nfp_sap_7_mot_HHH_b1_00258_000000025_0001_42_56_H_._HHH_b1_08208_0001_0000200008_0000001_0_0001_af2pred_0001_af2pred_swapped (protein)
chain: SSSSSEIEEEVRELLEEIERLLREGDFEEARKVSEEVLKIARKGNDKEAEKLIKEAVKRNSSSSS
B17: il2ra_site1_1z92_sap_12_mot_HHH_b1_00784_af2_000000189_0001_1_17_H_._ems_4hM_4652_0001_0000400029_0000001_0_0001_af2pred_0001_af2pred (protein)
chain: SSSSDLEEIVEKIVEEIVEELGLSEELEKALRKDARAAAENGFSPEAVRKALETNAEIANSSSSS
B18: il2ra_site1_3nfp_normal_mot_0eddeacbb14b769e73e254714f31e2f9_0001_af2_000000052_0001_37_51_H_._208e20f37e868f9baeee1912733167ef_0001_af2_0001_0000200005_0000001 … (protein)
chain: DEELEEELEELIKNNDPERLLEVLKKLAEKLGNPNEAARIIWEIARELGNSDVVYEVMRLDIEEQ
B19: il2ra_site1_2b5i_sap_20_mot_896a1d39e3b28640de5b7eb5baaf079b_0001_000000273_0001_37_51_H_._HEEHE_0493_0001_0000400033_0000001_0_0001_af2pred_dldesign_0_af2pred (protein)
chain: SSSSSSSLELFRRAEELIKAGKLDEAKKLAEELLREARARGNKTAARIAEKLIEECEEAKSSSSS
B20: il2ra_site2_2erj_sap_21_mot_HHH_b2_01818_000000011_0001_42_56_H_._HHH_b1_03429_0001_0000300033_0000001_0_0001 (protein)
chain: SSSSSSDVEEQVEELLEEAKRVEDPEEAAAIVNEAAAVAVRNDNDELLEEVRKIFTELASSSSSS
B21: il2ra_site1_1z92_normal_mot_HHH_b1_05862_af2_000000270_0001_22_38_H_._HHH_b1_01857_0001_0000100001_0000001_0 (protein)
chain: SSSSTAVEWALELVRAAARLGNEEQIEFLLRDVELLLELRNDPEVEEILREIRELLEELRSSSSS
B22: il2ra_site2_2erj_sap_16_mot_HHH_b1_00682_af2_000000112_0001_43_57_H_._HHH_b2_04454_af2_0001_0001100007_0000001_0_0001_af2pred_0001_af2pred_1_swapped (protein)
chain: SSSSSSDREEAEELLEEAKQIDDEEEAEKVLRRALRLAFHAGDEELAQEIFVLISELLSSSSSSS
B23: il2ra_site2_3nfp_sap_21_mot_HHH_b2_07213_000000002_0001_43_56_H_._HHH_b1_01357_af2_0001_0000200008_0000001_0_0001 (protein)
chain: SSSSDFEEYLEAVLRLLERAVREGNEEYVERLFEMIQLAVEDNNDPEALERLEELYERFRSSSSS
B24: il2ra_site2_2erj_sap_20_mot_64bd02d26d05ce9f1a62b616cea0b888_0001_af2_000000029_0001_36_49_H_._HHH_b2_06826_0001_0000300025_0000001_0_0001 (protein)
chain: SSSSSEAYEFAAEVSIEALELFKRGDPEEARRLLEEAEEYVRELGDERAAKYLEAALRDASSSSS
B25: il2ra_site2_3nfp_sap_23_mot_HHH_b2_02831_000000278_0001_1_18_H_._HHH_b1_00356_0001_0001200154_0000001_0_0001 (protein)
chain: SSSSSDIERVVKSALRFAEQVKEEGDEEIFRSAVEWARAVAVMNGNEELEELVEEFQREYSSSSS
B26: il2ra_site1_2b5i_sap_19_mot_07104d7dbe42e49ee5b1eb09eb0325d4_0001_1_000000237_0001_1_14_H_._c2c76b0c55ab846b919312a8a0542545_0001_0001_0000200016_0000001_0_0001 … (protein)
chain: SSSSDPEDEVYDLFHEALRLRRQGKKEEAKKVLEKALALAKELGNEKTVAEIQYFLERLKSSSSS
B27: il2ra_site2_3nfp_sap_23_mot_ems_3hM_2323_000000152_0001_1_19_H_._HHH_b1_01072_0001_0000200010_0000001_1_0001 (protein)
chain: SSSSRVEEYLRAVLALLKEALEEGDEEAARRMLEAVKLAAESNNDEEIEREVEKLEEILNSSSSS
B28: il2ra_site2_3nfp_sap_18_mot_HHH_b1_00399_af2_000000233_0001_42_56_H_._bf1826a50d40eacddbdd2daba850d2f6_0001_0001_0000700029_0000001_0_0001 (protein)
chain: DEELEEEAEEVIERAKEVAKHASPHARDVLEAAIKLLEEAVRNKDEEAIRLLLEAVREAVELLES
B29: il2ra_site1_1z92_normal_mot_HHH_b1_02362_af2_000000131_0001_1_17_H_._HHH_b2_03557_0001_0000100004_0000001_0_af2pred_0001_af2pred_1 (protein)
chain: SSSSSDDREASRIVAELIRKFKLSLEQMQELLKAALEALERGLSEEEIEELLERVAEELSSSSSS
B30: il2ra_site2_2erj_normal_mot_HHH_b1_02757_000000121_0001_41_57_H_._HHH_b2_06753_0001_0000100007_0000001_0_af2pred_0001_1_af2pred_swapped (protein)
chain: SSSSSSDIEEEVKELLEEAKRISDKREALRVLQEASELASKLNDEELLELIDEVLQELSSSSSSS
B31: il2ra_site2_2erj_sap_34_mot_c2bf78bdce995293a161f7082e24b401_0001_000000177_0001_37_51_H_._HHH_b2_02272_af2_0001_0000200009_0000001_0_0001 (protein)
chain: SSSSSEELHRLYELAVRVMRLIWEGDEEEAQELLEELEELAEKAKSENVKEIIKWLKERINSSSS
B32: il2ra_site1_3nfp_normal_mot_HHH_b2_01814_000000033_0001_1_16_H_._HHH_b1_05657_0001_0000200020_0000001_0_af2pred_0001_af2pred_1 (protein)
chain: SSSSTEVNKRAQELIKRIQELLHEGNPEEAEELLEELEELARELGDEVLKLLVERLRELLSSSSS
B33: il2ra_site1_3nfp_normal_mot_HHH_b1_01335_af2_000000258_0001_39_53_H_._HHH_b2_04619_0001_0000200009_0000001_0 (protein)
chain: SSSSSEDEEEVRELLEEAERIEDVREAARVLREAYRVAAETRNLELSQLIYKVMRELAKRSSSSS
B34: il2ra_site2_3nfp_sap_21_mot_HHH_b1_04050_af2_000000227_0001_39_53_H_._HHH_b1_08095_af2_0001_0000200006_0000001_0_0001 (protein)
chain: DAALRLAELVRKLGDWKLLALLYAAIAKLYRKDPEEALRVLEELVELLEEGNDEEAERLAEEVRK
B35: il2ra_site2_3nfp_normal_mot_HHH_b1_05918_af2_000000127_0001_23_40_H_._HHH_b1_07797_0001_0000400047_0000001_0 (protein)
chain: SSSSSEAEEYLRAALLLAELALREGDEENARRSLELAIQLAEHKGNPELLEELEELLEEINSSSS
B36: il2ra_site1_2b5i_sap_10_mot_HHH_b1_06258_af2_000000112_0001_42_56_H_._HHH_b2_08033_af2_0001_0000100003_0000001_0_0001 (protein)
chain: SSSDLQELNRIAAEIVDELAEEFGLDAEQIRLLTRLAVELVWRGVSPEEIEEELRKLAEELSSSS
B37: il2ra_site2_2erj_sap_18_mot_HHH_b1_07609_af2_000000145_0001_21_36_H_._HHH_b1_06048_0001_0000200020_0000001_0_0001 (protein)
chain: SSSSDEELHELFELANELLRLLTEGDEERIEELREELEKLAEEAGSPALVRMVREAVRANLSSSS

target: il2ra, P01589; assay: yeast display titration

Apparent Kd, inactive:
B1 no binding seen, B2 no binding seen, B3 no binding seen, B4 no binding seen, B5 no binding seen, B6 no binding seen, B7 no binding seen, B8 no binding seen, B9 no binding seen, B10 no binding seen, B11 no binding seen, B12 no binding seen, B13 no binding seen, B14 no binding seen, B15 no binding seen, B16 no binding seen, B17 no binding seen, B18 no binding seen, B19 no binding seen, B20 no binding seen, B21 no binding seen, B22 no binding seen, B23 no binding seen, B24 no binding seen, B25 no binding seen, B26 no binding seen, B27 no binding seen, B28 no binding seen, B29 > 1490 nM, B30 no binding seen, B31 no binding seen, B32 no binding seen, B33 no binding seen, B34 no binding seen, B35 no binding seen, B36 no binding seen, B37 no binding seen

Source: publication PMC10163288
